Results published in PubChem BioAssay AID212 (DTP/NCI, 2004).
The list is a part of this screen's results and no random one: it is rich in T/C values a quarter to a half above the control, in often repeated tests (any T/C) and in doses without a T/C. Other doses and runs of a compound stand elsewhere. T/C gives the treated animals as a percentage of the vehicle group. Schedules are NCI's codes, read here as Q, the interval in days (D) or hours (H), X, the number of doses. Some T/C values are followed by the survivors on the day toxicity was checked, most often the fifth; without a count, all were alive then. Some entries hold several experiments; their values stand side by side, smallest first. Some entries give survivors of the animals treated and no T/C: the source holds a T/C of zero for them, seemingly a mark for toxic or unscored doses. Survivors were counted at the toxicity check, usually on the fifth day, unless a day is given; later deaths do not show.

System: BDF1 mice, colon carcinoma 38 sc, T/C %
Experiment: NCI In Vivo Anticancer Drug Screen. Data for tumor model Colon Carcinoma 38 (subcutaneous) in B6D2F1 (BDF1) mice
Details: T/C endpoint: median tumor weight (est.), higher T/C = larger tumour; for T/C: evaluated on day 20
Outline: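 Transplantable tumor in mice; compound-treated vs vehicle-dosed controls. Measured survival or tumor size; value = T ÷ C.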

[1] = dose: 100.0 mg/kg/injection, schedule: Q07DX002 (ip), vehicle: saline with Tween-80
[2] = dose: 25.0 mg/kg/injection, schedule: Q07DX002 (ip), vehicle: saline with Tween-80
[3] = dose: 50.0 mg/kg/injection, schedule: Q07DX002 (ip), vehicle: saline with Tween-80

NC(N)=NC(N)=Nc1ccc(-c2ccc(N=C(N)N=C(N)N)cc2)cc1
survivor count [1]: 0 of 10 on day 20

CO[C@@]12[C@H](COC(N)=O)C3=C(C(=O)C(C)=C(N)C3=O)N1C[C@@H]1N[C@@H]12
survivor count (dose: 8.0 mg/kg/injection, schedule: Q07DX002 (ip), vehicle: saline): 0 of 10 on day 20 and 5 of 10 on day 20 | survivor count (dose: 8.0 mg/kg/injection, schedule: Q07DX002 (ip), vehicle: water): 1 of 10 on day 20 | survivor count (dose: 60.0 mg/kg/injection, schedule: Q07DX002 (oral), vehicle: water): 0 of 10 on day 20

COC1=C(OC)C(=O)C(C/C=C(\C)CC/C=C(\C)CC/C=C(\C)CC/C=C(\C)CC/C=C(\C)CC/C=C(\C)CC/C=C(\C)CC/C=C(\C)CC/C=C(\C)CCC=C(C)C)=C(C)C1=O
T/C [2]: 128 % of control

Cc1c2ccccc2cc2cccc[n+]12
T/C (dose: 20.0 mg/kg/injection, schedule: Q07DX002 (ip), vehicle: saline): 136 % of control | survivor count (dose: 80.0 mg/kg/injection, schedule: Q07DX002 (ip), vehicle: saline): 0 of 10 on day 20 | survivor count (dose: 160.0 mg/kg/injection, schedule: Q07DX002 (ip), vehicle: saline): 0 of 10 on day 20

Cc1cc(NCCCCCCCNc2cc(C)nc3cc(N)ccc23)c2ccc(N)cc2n1
T/C (dose: 3.12 mg/kg/injection, schedule: Q07DX002 (ip), vehicle: saline with Tween-80): 93 [9 of 10 alive on day 20], 104, 112, 132 % of control | T/C (dose: 6.25 mg/kg/injection, schedule: Q07DX002 (ip), vehicle: saline with Tween-80): 84, 95, 101, 121 % of control | T/C (dose: 12.5 mg/kg/injection, schedule: Q07DX002 (ip), vehicle: saline with Tween-80): 66 [9 of 10 alive], 73, 87, 139 % of control | T/C [2]: 22 [9 of 10 alive], 58 [9 of 10 alive on day 20], 63 [9 of 10 alive on day 20], 95 % of control | survivor count [3]: 1 of 10 on day 20, 5 of 10 on day 20, 6 of 10 on day 20 | survivor count [1]: 0 of 10 on day 20

COc1cc(C(C)(C)C)cc(OC)c1C(O)(c1c(OC)cc(C(C)(C)C)cc1OC)c1c(OC)cc(C(C)(C)C)cc1OC
survivor count (dose: 200.0 mg/kg/injection, schedule: Q07DX002 (ip), vehicle: saline with Tween-80): 4 of 10 on day 20 | survivor count (dose: 400.0 mg/kg/injection, schedule: Q07DX002 (ip), vehicle: saline with Tween-80): 0 of 10 on day 20

O=C1C=CN(C2OC(CO)C(O)C2O)C(=O)C1 (stereo not drawn)
T/C (dose: 50.0 mg/kg/injection, schedule: Q07DX003 (ip), vehicle: saline): 134 % of control | T/C (dose: 400.0 mg/kg/injection, schedule: Q07DX003 (ip), vehicle: saline): 130 % of control

C[C@]12CC[C@H]3[C@@H](CCC4=C[C@@H](OC5OCC(OC6OC(CO)C(O)C(O)C6O)C(O)C5O)CC[C@@]43C=O)[C@@]1(O)CCC2C1=CC(=O)OC1 (stereo partly drawn)
T/C (dose: 0.63 mg/kg/injection, schedule: Q07DX003 (ip), vehicle: Klucel (hydroxypropylcellulose) (HPC)): 132 % of control

CN1N=C(N)c2cn(C3OC(COP(=O)(O)O)C(O)C3O)c3ncnc1c23 (stereo not drawn)
survivor count (dose: 100.0 mg/kg/injection, schedule: Q07DX002 (ip), vehicle: water): 4 of 10 on day 20 | survivor count (dose: 200.0 mg/kg/injection, schedule: Q07DX002 (ip), vehicle: water): 0 of 10 on day 20 and 4 of 10 on day 20

COC1=C2C[C@@H](C)C[C@@H](OC)[C@@H](O)[C@H](C)/C=C(\C)[C@@H](OC(N)=O)[C@H](OC)/C=C\C=C(/C)C(=O)NC(=CC1=O)C2=O
T/C (dose: 0.5 mg/kg/injection, schedule: Q07DX002 (ip), vehicle: saline with Tween-80): 137 % of control | T/C (dose: 1.0 mg/kg/injection, schedule: Q07DX002 (ip), vehicle: saline with Tween-80): 136 % of control | T/C (dose: 2.0 mg/kg/injection, schedule: Q07DX002 (ip), vehicle: saline with Tween-80): 132 % of control | T/C (dose: 4.0 mg/kg/injection, schedule: Q07DX002 (ip), vehicle: saline with Tween-80): 142 % of control

CC(=O)NC(Cc1ccc(F)cc1)C(=O)O (stereo not drawn)
T/C [3]: 131 % of control | survivor count (dose: 1600.0 mg/kg/injection, schedule: Q07DX002 (ip), vehicle: saline with Tween-80): 4 of 10 on day 20

O=C(O)CSc1c(Cl)c(=O)oc2ccc(Cl)cc12
survivor count (dose: 400.0 mg/kg/injection, schedule: Q07DX002 (ip), vehicle: Klucel (hydroxypropylcellulose) (HPC)): 0 of 10 on day 20
